Experimental findings from publication PMC10867109 are described below.

Chains of the proteins cited; added tags and fusions are not shown.
UniProt Q01105: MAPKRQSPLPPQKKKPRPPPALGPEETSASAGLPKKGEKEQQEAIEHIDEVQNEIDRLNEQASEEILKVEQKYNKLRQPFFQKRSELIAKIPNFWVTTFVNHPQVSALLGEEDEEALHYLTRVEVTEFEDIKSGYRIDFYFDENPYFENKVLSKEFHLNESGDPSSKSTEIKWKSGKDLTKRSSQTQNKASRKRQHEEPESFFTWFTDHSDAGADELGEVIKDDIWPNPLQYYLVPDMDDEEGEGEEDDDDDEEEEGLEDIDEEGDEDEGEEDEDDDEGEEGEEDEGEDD
UniProt Q13263: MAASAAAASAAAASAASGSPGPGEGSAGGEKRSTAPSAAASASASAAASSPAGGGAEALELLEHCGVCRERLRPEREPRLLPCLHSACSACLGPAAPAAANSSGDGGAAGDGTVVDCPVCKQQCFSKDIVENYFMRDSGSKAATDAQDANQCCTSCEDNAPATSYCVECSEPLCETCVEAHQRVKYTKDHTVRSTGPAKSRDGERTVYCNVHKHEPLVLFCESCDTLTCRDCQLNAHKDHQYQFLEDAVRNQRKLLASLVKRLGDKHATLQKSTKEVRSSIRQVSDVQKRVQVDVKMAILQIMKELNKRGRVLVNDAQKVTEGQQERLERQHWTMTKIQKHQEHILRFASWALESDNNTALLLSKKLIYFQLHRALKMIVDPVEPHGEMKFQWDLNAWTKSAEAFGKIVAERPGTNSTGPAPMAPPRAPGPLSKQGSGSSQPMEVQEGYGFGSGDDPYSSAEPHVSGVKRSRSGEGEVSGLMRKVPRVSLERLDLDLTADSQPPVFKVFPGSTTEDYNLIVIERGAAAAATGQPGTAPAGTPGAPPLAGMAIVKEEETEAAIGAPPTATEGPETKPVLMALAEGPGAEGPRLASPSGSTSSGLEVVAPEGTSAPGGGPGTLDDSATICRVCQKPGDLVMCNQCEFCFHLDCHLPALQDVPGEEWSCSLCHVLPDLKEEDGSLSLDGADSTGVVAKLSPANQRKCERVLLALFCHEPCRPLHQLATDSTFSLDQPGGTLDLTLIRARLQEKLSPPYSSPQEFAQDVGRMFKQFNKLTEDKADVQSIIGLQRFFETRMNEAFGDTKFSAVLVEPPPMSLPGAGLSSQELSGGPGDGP
UniProt Q13185: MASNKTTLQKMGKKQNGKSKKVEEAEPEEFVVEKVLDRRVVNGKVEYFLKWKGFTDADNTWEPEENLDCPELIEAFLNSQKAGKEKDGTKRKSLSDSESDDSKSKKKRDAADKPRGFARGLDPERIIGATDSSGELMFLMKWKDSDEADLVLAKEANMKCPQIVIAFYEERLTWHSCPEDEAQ

No constants are given. Whether binding was seen depends on the method and setting. Binding seen in cells or lysates may run through a third protein. These calls come from enrichment with a bait or labelling near it, and not all partners need be listed.

First the molecules themselves.
B1: zinc finger and BTB domain-containing protein 11 (ZBTB11), endogenous (protein, UniProt O95625 1-1053)
chain: MSSEESYRAILRYLTNEREPYAPGTEGNVKRKIRKAAACYVVRGGTLYYQRRQRHRKTFAELEVVLQPERRRDLIEAAHLGPGGTHHTRHQTWHYLSKTYWWRGILKQVKDYIKQCSKCQEKLDRSRPISDVSEMLEELGLDLESGEESNESEDDLSNFTSSPTTASKPAKKKPVSKHELVFVDTKGVVKRSSPKHCQAVLKQLNEQRLSNQFCDVTLLIEGEEYKAHKSVLSANSEYFRDLFIEKGAVSSHEAVVDLSGFCKASFLPLLEFAYTSVLSFDFCSMADVAILARHLFMSEVLEICESVHKLMEEKQLTVYKKGEVQTVASTQDLRVQNGGTAPPVASSEGTTTSLPTELGDCEIVLLVNGELPEAEQNGEVGRQPEPQVSSEAESALSSVGCIADSHPEMESVDLITKNNQTELETSNNRENNTVSNIHPKLSKENVISSSPEDSGMGNDISAEDICAEDIPKHRQKVDQPLKDQENLVASTAKTDFGPDDDTYRSRLRQRSVNEGAYIRLHKGMEKKLQKRKAVPKSAVQQVAQKLVQRGKKMKQPKRDAKENTEEASHKCGECGMVFQRRYALIMHKLKHERARDYKCPLCKKQFQYSASLRAHLIRHTRKDAPSSSSSNSTSNEASGTSSEKGRTKREFICSICGRTLPKLYSLRIHMLKHTGVKPHACQVCGKTFIYKHGLKLHQSLHQSQKQFQCELCVKSFVTKRSLQEHMSIHTGESKYLCSVCGKSFHRGSGLSKHFKKHQPKPEVRGYHCTQCEKSFFEARDLRQHMNKHLGVKPFQCQFCDKCYSWKKDWYSHVKSHSVTEPYRCNICGKEFYEKALFRRHVKKATHGKKGRAKQNLERVCEKCGRKFTQLREYRRHMNNHEGVKPFECLTCGVAWADARSLKRHVRTHTGERPYVCPVCSEAYIDARTLRKHMTKFHRDYVPCKIMLEKDTLQFHNQGTQVAHAVSILTAGMQEQESSGPQELETVVVTGETMEALEAVAATEEYPSVSTLSDQSIMQVVNYVLAQQQGQKLSEVAEAIQTVKVEVAHISGGE

For this assay, the target named is Flag-HA-tagged SET (UniProt Q01105). As to the kind of experiment: affinity purification with mass spectrometry; nuclear fraction of H1299-FH-SET stable cells (control H1299-EV), salt adjusted to 100 mM, tandem precipitation with Flag M2 beads and HA beads, elution with 0.1% TFA, SDS-PAGE bands digested with trypsin, LC-MS/MS.
As for “transcription intermediary factor 1-beta (TRIM28) (from UniProt Q13263 1-835)”, the binding result is “binds”.

On to CBX3 (from UniProt Q13185 1-183), for which the binding entry is “binds”.

Consider B1, for which the binding result is “binds”.
